Tested on: liver slices
Conditions: 2 mg lidocaine dose; in presence of HL 100; FIG. 3A

CCN(CC)CC(=O)Nc1c(C)cccc1C [lidocaine]
time to reduce lidocaine levels to non-toxic levels: ≤ 30 min

Reference: US7829325B2, “Drug testing with bio-artificial organ slices including for example those derived from liver” (HepaHope, Inc., priority 2003, dated 2010)
